The series is described as follows: in vitro. The conditions noted are these: male, Sprague-Dawley, rat. As to the method: Identification of toxicity markers was performed by microarray analysis and by the AlamarBlue® assay, a classical measure of cytotoxicity. The AlamarBlue® assay was performed in triplicate.
The source of the primary rat hepatocytes was Sprague Dawley Outbred CDs Rats (CRL:CD®[SD] IGS BR, Charles River Laboratories). […] Primary rat hepatocytes were received the day after the cells were removed from the animals. After arrival, the cells, the cells were incubated overnight (˜15 hrs) before the toxin was added to the cultures. […] Toxin or vehicle was administered to hepatocyte cultures as follows. For each treatment, i.e., vehicle alone, vehicle+toxin at low dose, or vehicle+toxin at high dose, cells were harvested after 3, 6 and 24-hour incubations with the toxin solution or with the vehicle.
The AlamarBlue® assay was performed as follows, using only the 24-hour time point samples. • 1. […] Alternatively, two absorbance readings can be measured for the oxidized (600 nm) and the reduced (570 nm) form of AlamarBlueg. After obtaining absorbance readings, results were calculated according to the manufacturer's protocol provided in the product description. • 9. The data were evaluated to determine whether or not the toxin reduced cell viability. If so, the dose of the toxin that reduced cell viability by ˜10-20% was determined. […]

Turning to `CCCCc1oc2ccccc2c1C(=O)c1cc(I)c(OCCN(CC)CC)c(I)c1` [Amiodarone], the viability (as a rule, a read-out of living cells in per cent, often relative to untreated cells) at 24 h, 6 uM is approximately 100% and the viability at 24 h, 60 uM is 80 to 85%.

The values are drawn from patent US7469185B2, “Primary rat hepatocyte toxicity modeling” (Ocimum Biosolutions, Inc., priority 2002, dated 2008).
